Experimental data from paper PMC9054797.
These are yes or no findings as the source states them, for the method shown. Binding seen in cells or lysates may run through a third protein. Some binding calls cover weakened binding; strength is not graded here.

By UniProt entry, the sequences of proteins in these tests, tags left out.
UniProt P09104: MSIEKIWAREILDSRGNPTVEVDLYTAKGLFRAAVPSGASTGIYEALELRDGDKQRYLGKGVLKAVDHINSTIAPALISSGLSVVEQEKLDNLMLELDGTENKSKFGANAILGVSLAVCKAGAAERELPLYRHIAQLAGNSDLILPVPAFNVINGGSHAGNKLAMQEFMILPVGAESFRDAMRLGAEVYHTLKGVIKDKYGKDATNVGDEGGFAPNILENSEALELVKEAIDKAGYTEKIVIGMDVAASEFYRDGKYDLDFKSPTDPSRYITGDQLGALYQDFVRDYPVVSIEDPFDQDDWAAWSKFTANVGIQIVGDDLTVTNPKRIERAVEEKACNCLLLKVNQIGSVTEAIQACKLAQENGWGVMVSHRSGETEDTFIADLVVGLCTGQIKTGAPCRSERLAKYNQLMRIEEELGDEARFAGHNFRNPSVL

Biological target: T1, Neuroblastoma suppressor of tumorigenicity 1 (human) (UniProt P41271)
T1 sequence: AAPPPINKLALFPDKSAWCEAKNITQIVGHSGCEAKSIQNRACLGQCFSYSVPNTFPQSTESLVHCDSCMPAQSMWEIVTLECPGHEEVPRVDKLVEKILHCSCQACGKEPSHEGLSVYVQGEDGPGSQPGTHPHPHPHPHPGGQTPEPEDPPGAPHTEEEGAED
Test: co-IP; cell lysate in low-salt IP buffer; IgG, GFP or FLAG antibody (1 µg) overnight, protein A/G beads 2 h, western blot

- binding: binds
Substance: Neuron-specific enolase (from UniProt P09104 1-434) (enzyme)
